Source: the supplement of paper PMC10849652
The list shows a part of the results. Residues, ends and D or L forms follow the SMILES beside them. *: point of attachment. Cbz = O=C(OCc1ccccc1)*

Sequences of proteins named here, by UniProt entry; tags and fusion partners are left off. A change or cut given only in a name is not applied to a line headed by its entry.
UniProt Q9Y5J7: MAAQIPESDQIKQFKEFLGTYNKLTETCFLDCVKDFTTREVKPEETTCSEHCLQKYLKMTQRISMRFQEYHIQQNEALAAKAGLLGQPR
UniProt P01137, whole entry, looked up: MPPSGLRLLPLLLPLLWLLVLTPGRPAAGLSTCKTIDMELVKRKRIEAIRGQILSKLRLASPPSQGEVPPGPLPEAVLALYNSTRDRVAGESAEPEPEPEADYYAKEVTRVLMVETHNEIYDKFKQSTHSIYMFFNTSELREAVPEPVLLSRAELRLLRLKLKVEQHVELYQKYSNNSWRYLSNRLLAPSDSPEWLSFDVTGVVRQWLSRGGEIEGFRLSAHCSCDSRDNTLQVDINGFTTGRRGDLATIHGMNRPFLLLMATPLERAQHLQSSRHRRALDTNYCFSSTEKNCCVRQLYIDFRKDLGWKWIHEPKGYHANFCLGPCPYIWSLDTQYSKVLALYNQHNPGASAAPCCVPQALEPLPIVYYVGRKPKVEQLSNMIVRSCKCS
UniProt P62072: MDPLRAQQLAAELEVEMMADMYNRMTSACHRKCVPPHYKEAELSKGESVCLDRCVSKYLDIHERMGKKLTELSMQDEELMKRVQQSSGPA
UniProt Q8WUA7: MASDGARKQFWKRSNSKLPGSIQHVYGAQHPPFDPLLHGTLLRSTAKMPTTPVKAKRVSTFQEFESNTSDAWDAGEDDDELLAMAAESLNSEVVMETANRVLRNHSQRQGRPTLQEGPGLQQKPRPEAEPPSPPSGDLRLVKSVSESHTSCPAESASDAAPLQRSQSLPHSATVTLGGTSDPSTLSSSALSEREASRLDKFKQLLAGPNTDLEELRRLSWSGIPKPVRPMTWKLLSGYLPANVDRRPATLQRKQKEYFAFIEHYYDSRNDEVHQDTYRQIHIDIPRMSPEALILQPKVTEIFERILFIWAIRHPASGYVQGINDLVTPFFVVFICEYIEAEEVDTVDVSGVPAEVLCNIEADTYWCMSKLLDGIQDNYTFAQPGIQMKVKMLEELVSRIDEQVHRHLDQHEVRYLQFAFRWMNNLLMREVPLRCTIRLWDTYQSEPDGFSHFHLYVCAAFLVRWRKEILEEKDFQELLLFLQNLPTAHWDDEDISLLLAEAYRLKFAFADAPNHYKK
UniProt Q96FV9: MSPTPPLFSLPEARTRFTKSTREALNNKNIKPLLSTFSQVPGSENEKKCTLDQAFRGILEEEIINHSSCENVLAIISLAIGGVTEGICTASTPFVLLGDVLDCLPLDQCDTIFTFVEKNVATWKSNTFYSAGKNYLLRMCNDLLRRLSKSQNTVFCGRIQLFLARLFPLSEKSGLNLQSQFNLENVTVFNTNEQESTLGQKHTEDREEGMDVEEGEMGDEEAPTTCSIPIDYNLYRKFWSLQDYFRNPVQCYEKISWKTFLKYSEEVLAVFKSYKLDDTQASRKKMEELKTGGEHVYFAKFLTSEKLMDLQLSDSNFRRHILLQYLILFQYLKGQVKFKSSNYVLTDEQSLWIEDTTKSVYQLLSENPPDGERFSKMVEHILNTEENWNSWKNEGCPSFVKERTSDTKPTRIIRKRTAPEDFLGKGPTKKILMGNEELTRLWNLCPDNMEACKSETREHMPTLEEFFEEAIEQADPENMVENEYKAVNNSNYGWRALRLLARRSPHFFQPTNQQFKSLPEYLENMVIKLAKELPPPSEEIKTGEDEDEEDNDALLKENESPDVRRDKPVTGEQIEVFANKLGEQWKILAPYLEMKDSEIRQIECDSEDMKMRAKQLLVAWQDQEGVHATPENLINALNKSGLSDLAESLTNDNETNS
UniProt Q9Y5J9: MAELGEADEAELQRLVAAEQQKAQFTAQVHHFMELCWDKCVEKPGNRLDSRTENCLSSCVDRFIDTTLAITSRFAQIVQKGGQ
UniProt Q9Y5L4: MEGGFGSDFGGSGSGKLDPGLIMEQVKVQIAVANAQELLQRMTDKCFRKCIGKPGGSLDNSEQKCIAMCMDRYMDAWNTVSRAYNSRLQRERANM
UniProt P02787, whole entry, looked up: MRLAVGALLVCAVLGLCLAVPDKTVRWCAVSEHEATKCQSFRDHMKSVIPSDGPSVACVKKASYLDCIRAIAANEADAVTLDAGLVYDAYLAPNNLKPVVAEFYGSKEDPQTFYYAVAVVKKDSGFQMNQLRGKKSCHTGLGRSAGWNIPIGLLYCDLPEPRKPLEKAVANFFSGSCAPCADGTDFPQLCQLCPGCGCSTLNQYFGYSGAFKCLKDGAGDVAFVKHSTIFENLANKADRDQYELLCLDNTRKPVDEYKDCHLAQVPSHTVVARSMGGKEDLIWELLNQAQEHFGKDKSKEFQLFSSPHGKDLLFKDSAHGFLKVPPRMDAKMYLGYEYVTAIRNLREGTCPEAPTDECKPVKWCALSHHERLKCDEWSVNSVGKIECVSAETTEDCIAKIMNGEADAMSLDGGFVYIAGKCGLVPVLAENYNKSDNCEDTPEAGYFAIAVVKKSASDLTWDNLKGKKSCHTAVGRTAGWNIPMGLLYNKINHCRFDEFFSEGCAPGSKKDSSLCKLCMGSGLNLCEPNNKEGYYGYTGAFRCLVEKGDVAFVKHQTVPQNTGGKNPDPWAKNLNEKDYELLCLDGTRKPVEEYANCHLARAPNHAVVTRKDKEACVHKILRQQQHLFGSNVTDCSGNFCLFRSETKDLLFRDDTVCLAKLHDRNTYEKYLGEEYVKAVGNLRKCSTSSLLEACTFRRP

Experiments:
Assay in all cases: log2 fold change, soluble protein after heating vs DMSO (PISA); higher = thermal stabilisation; K562 cells, 10 uM, 30 min; active = over 0.2 and 3.5 SD of the protein, either way, in both replicates (recomputed)
[1] = compound: C#Cc1cccc(Nc2ncnc3cc(OCCOC)c(OCCOC)cc23)c1 [erlotinib]
In short: (§1)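 K562 cells at 2×10^6 cells/mL were treated with 10 μM compound for 30 min. Aliquots were heated for 3 min across 48°C-58°C, pooled, and extracted in PBS with 0.5% NP-40 at 4°C; soluble protein was the supernatant after 21,000xg for 90 min. Soluble protein was quantified by TMTpro 16plex LC-MS/MS with channel sums equalised, and reported as log2 fold change in thermal stability against DMSO controls, with values from duplicates.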

[2] = compound: C/C(=N\NC(=O)C1=CC(=CC=C1)S(=O)(=O)N2CCOCC2)/C3=C(C=CC(=C3)Cl)O
In short: as §1

[3] = compound: C1=CC(=C(C=C1Cl)C2=NC3=NC=CN=C3C(=N2)NC4=CC=NC=C4)F
In short: as §1

[4] = compound: C1=CC(=CC=C1C2=NC3=C(N2)C=C(C=C3)C(=O)N)OC4=CC=C(C=C4)Cl
In short: as §1

[5] = compound: C1=CC2=C(C=CC(=C2)/C=C\3/C(=O)NC(=NCC4=CC=CS4)S3)N=C1
In short: as §1

[6] = compound: C1=CC2=NC=CN=C2C=C1/C=C/3\C(=O)NC(=O)S3
In short: as §1

[7] = compound: C1=CC=C(C=C1)C2=NC(=C(N2)C3=CC=NC=C3)C4=CC(=C(C=C4)Cl)O
In short: as §1

[8] = compound: C1=CC=C2C(=C1)C3=NNC4=CC=CC(=C43)C2=O
In short: as §1

[9] = compound: C1CCN(C1)C(=O)NC2=CC=CC(=C2)NC3=NC=C(C(=N3)NCCC4=CN=CN4)Br
In short: as §1

[10] = compound: C1CN(CCC1(CC2=CC=C(C=C2)Cl)N)C3=NC=NC4=C3C=CN4
In short: as §1

[11] = compound: C1COCCN1CCN2C3=CC=CC=C3N=C2NC(=O)C4=CC(=CC=C4)[N+](=O)[O-] [IRAK-1-4 Inhibitor I]
In short: as §1

[12] = compound: C=CC(=O)N1CCC[C@@H](n2nc(-c3ccc(Oc4ccccc4)cc3)c3c(N)ncnc32)C1 [ibrutinib]
In short: as §1

[13] = compound: CC(=O)c1cnc2ccc(-c3cc(Cl)c(O)c(Cl)c3)nc2c1N[C@H]1CC[C@H](CN(C)C)CC1
In short: as §1

[14] = compound: CC(C)(C)Cn1c(N)nc2ccc(-c3[nH]c(C(C)(C)C)nc3-c3ccc(F)cc3)nc21 [ralimetinib]
In short: as §1

[15] = compound: CC(C)(O)CC(=O)NCCn1ccc2ncnc(Nc3ccc(Oc4cccc(C(F)(F)F)c4)c(Cl)c3)c21
In short: as §1

[16] = compound: CC(C)C1=C2N=C(C=C(N2N=C1)NCC3=CC=CC=C3)NCCCCCCN
In short: as §1

[17] = compound: CC(C)C[C@@H](C=O)NC(=O)[C@H](CC(C)C)NC(=O)[C@H](CC(C)C)NC(=O)OCc1ccccc1
In short: as §1

[18] = compound: CC(C)N(C[C@H]1O[C@@H](n2cnc3c(N)ncnc32)[C@H](O)[C@@H]1O)[C@H]1C[C@@H](CCc2nc3cc(C(C)(C)C)ccc3[nH]2)C1 [pinometostat]
In short: as §1

[19] = compound: CC1=C(C(CC(=O)N1)C2=CC=C(C=C2)C(F)(F)F)C(=O)NC3=C(C=C4C(=C3)C=NN4)F
In short: as §1

[20] = compound: CC1=C(C2=C(C=C1)C(=O)C3=CC=CC=C3N2CCCN)C
In short: as §1

Measured: log2 fold change

TIMM9 (UniProt Q9Y5J7)
inactive: [1] -0.034 | [2] -0.088 | [3] 0.272 | [4] 0.052 | [5] 0.15 | [6] 0.159 | [7] 0.109 | [8] 0.096 | [9] -0.075 | [10] 0.027 | [11] -0.055 | [12] 0 | [13] -0.022 | [14] -0.144 | [15] -0.142 | [16] 0.101 | [17] -0.046 | [18] -0.101 | [19] 0.024 | [20] 0.202

TGFB1 (UniProt P01137)
inactive: [1] -0.038 | [2] 0.012 | [3] 0.055 | [4] 0.028 | [5] 0.044 | [6] 0.015 | [7] 0.002 | [8] -0.005 | [9] -0.005 | [10] 0.008 | [11] 0 | [12] 0.01 | [13] 0.025 | [14] -0.015 | [15] -0.006 | [16] 0.004 | [17] 0.068 | [18] 0 | [19] 0.001 | [20] -0.02

TIMM10 (UniProt P62072)
inactive: [1] -0.109 | [2] -0.021 | [3] 0.137 | [4] -0.011 | [5] 0.044 | [6] 0.051 | [7] 0.072 | [8] 0.029 | [9] -0.014 | [10] -0.016 | [11] -0.06 | [12] 0.024 | [13] -0.041 | [14] -0.145 | [15] -0.026 | [16] 0.047 | [17] -0.09 | [18] -0.078 | [20] 0.174

TBC1D22A (UniProt Q8WUA7)
inactive: [1] 0.005 | [2] 0.009 | [3] 0.013 | [4] 0.03 | [5] -0.015 | [6] 0.04 | [7] 0.006 | [8] -0.017 | [9] 0.009 | [10] 0.044 | [11] -0.019 | [12] 0.013 | [13] -0.025 | [14] -0.025 | [15] -0.003 | [16] -0.003 | [17] -0.024 | [18] -0.071 | [19] 0 | [20] -0.013

THOC1 (UniProt Q96FV9)
inactive: [1] 0.262 | [2] 0.055 | [3] -0.113 | [4] 0.021 | [5] -0.059 | [6] -0.061 | [7] 0.014 | [8] -0.067 | [9] 0.048 | [10] -0.099 | [11] -0.089 | [12] -0.045 | [13] 0.006 | [14] 0.12 | [15] -0.033 | [16] -0.025 | [17] 0.069 | [18] 0.121 | [19] 0 | [20] 0.023

TIMM8B (UniProt Q9Y5J9)
inactive: [1] 0 | [2] 0 | [3] 0.539 | [4] -0.051 | [5] -0.006 | [6] 0.077 | [7] 0.036 | [8] 0.027 | [9] -0.087 | [10] -0.1 | [11] -0.031 | [12] 0.032 | [13] -0.012 | [14] -0.002 | [15] -0.056 | [16] 0.065 | [17] -0.22 | [18] -0.08 | [19] 0.132 | [20] 0.357

TIMM13 (UniProt Q9Y5L4)
inactive: [1] 0.018 | [2] 0 | [3] 0.315 | [4] 0 | [5] 0.003 | [6] 0.111 | [7] 0.063 | [8] -0.005 | [9] -0.025 | [10] -0.006 | [11] -0.031 | [12] 0.012 | [13] 0.01 | [14] -0.008 | [15] -0.145 | [16] 0.048 | [17] -0.085 | [18] -0.092 | [20] 0.092

TF (UniProt P02787)
inactive: [1] -0.138 | [2] -0.168 | [3] 0.122 | [4] 0.15 | [5] 0.158 | [6] -0.053 | [7] 0.033 | [8] -0.153 | [9] 0.289 | [10] 0.304 | [11] 0.184 | [12] 0.144 | [13] 0.103 | [14] -0.011 | [15] 0.304 | [16] 0.043 | [17] 0.101 | [18] -0.051 | [19] -0.031 | [20] -0.205
